Experimental data published in PubChem BioAssay AID540276 (National Center for Advancing Translational Sciences (NCATS), 2011).
Screen size: about 300,000 compounds; about 5,400 (1.8%) were called active. The shares of active, inactive and inconclusive entries below differ from those in the screen. The call rests on the fitted dose curve; tested in HEK293 cells. Potencies beside an inconclusive call are fits to weak or partial responses and may not hold up.

assay: qHTS for inhibitors of binding or entry into cells for Marburg Virus; conditions: Marburg virus pseudotyped entry inhibition, cell reporter; activity change, negative = inhibition: at 37.8 µM (top of the series) unless noted
On the % scale 0 is the no-effect control and ±100 the full control effect; potency means the concentration at half of the fitted maximal effect.

Structure (SMILES)	activity change, negative = inhibition	Potency
C/C(=N/NC(=O)c1ccc(-c2ccccc2)cc1)c1cc(O)cc(O)c1	inactive: 8.97% [at 46.1 µM]	
COc1ccc(C(=O)NC(=S)N2CCN(c3ccc([N+](=O)[O-])cc3)CC2)cc1	inactive: 1.11%	
CCN(c1ccccc1)c1nnc(NC(=O)Nc2cccc(Cl)c2C)s1		inconclusive: 3.16 µM [inhibitor, single point]
Nc1c2c(nc3sc4c(c13)CCCC4)-c1ccccc1CC2		active: 7.08 µM
COc1cc(C(=O)NCCSc2ccc(Br)cc2)cc(OC)c1OC		inconclusive: 0.562 µM [inhibitor, full curve, poor fit]
Cc1ccccc1N=CC1=C(O)c2ccccc2C1=O		active: 8.91 µM
Cc1ccc(SCC(=O)N2N=CCC2c2ccccc2)cc1 (centres undefined)		inconclusive: 14.1 µM [activator, single point]
CN(C)c1oc(/C=C/c2ccc(F)cc2)nc1C#N		inconclusive: 3.55 µM [activator, partial curve, poor fit]
Cc1ccc(C)c(Nc2c([N+](=O)[O-])c(=O)oc3ccccc23)c1		inconclusive: 3.55 µM [inhibitor, partial curve, poor fit]
CCCCn1cnc2c(SCc3ccc(Br)cc3)nc(N)nc21		inconclusive: 4.47 µM [inhibitor, full curve, poor fit]
O=c1[nH]c2ccc(Cl)cc2c(-c2ccccc2)c1CN1CCOCC1		inconclusive: 0.13 µM [inhibitor, partial curve, poor fit]
Cc1nc2nc(N)nn2c(C)c1C/C=C/c1ccccc1	inactive: -6.34% [at 46.1 µM]	
Cc1cccc(-c2c3c(=O)n(C)c(=O)n(C)c3cn2-c2cc(N)c(Cl)cc2Cl)c1		inconclusive: 22.4 µM [inhibitor, single point]
Cc1ccc(C(=O)N2CCN(c3ccc(C(F)(F)F)cn3)CC2)c(C)c1		inconclusive: 3.16 µM [activator, single point]
COc1cccc(/C=C/C(=O)Nc2ccc3c(c2)OCCO3)c1OC		inconclusive: 7.08 µM [inhibitor, partial curve, poor fit]
N#C/C(C(=O)N1CCOCC1)=C1\S[C@H](Cc2ccccc2)C(=O)N1c1ccccc1	inactive: 20.1%	
CCOC(=O)c1c(-c2ccccc2)csc1NC(=O)c1nc(S(=O)(=O)CC)ncc1Cl		inconclusive: 2.51 µM [inhibitor, partial curve, poor fit]
Cc1c(C(=O)NCCSCc2ccccc2)cccc1[N+](=O)[O-]		inconclusive: 11.2 µM [inhibitor, partial curve, poor fit]
Cc1ccc(C(=O)CC(Nc2ccc(F)cc2)c2ccccc2)cc1 (centres undefined)	inactive: -15.5%	
CCOC(=O)c1ccc(NC(=O)COc2ccc(CNC3CCCCC3)cc2OC)cc1		inconclusive: 3.55 µM [inhibitor, partial curve, poor fit]
COc1ccc(CC(=O)N/N=C(\C)CC(=O)Nc2cccc(F)c2)cc1	inactive: 4.17% [at 46.1 µM]	
CCC1=Nc2cc(C(=O)NCCCN3CCOCC3)ccc2Sc2ccccc21	inactive: -15.8% [at 46.1 µM]	
O=C(O)c1cccc(NC(=O)c2cccc(S(=O)(=O)N3CCCCC3)c2)c1	inactive: -18.7%	

Reformatted: 5 of the compounds above

| Structure (SMILES) | activity change, negative = inhibition | Potency |
| --- | --- | --- |
| Nc1c2c(nc3sc4c(c13)CCCC4)-c1ccccc1CC2 |  | active: 7.08 µM |
| Cc1ccccc1N=CC1=C(O)c2ccccc2C1=O |  | active: 8.91 µM |
| CCCCn1cnc2c(SCc3ccc(Br)cc3)nc(N)nc21 |  | inconclusive: 4.47 µM [inhibitor, full curve, poor fit] |
| Cc1nc2nc(N)nn2c(C)c1C/C=C/c1ccccc1 | inactive: -6.34% [at 46.1 µM] |  |
| COc1ccc(CC(=O)N/N=C(\C)CC(=O)Nc2cccc(F)c2)cc1 | inactive: 4.17% [at 46.1 µM] |  |

The results go on:

Structure (SMILES)	activity change, negative = inhibition	Potency
COc1ccc(CCNC(=O)COC(=O)C23CC4CC(CC(Br)(C4)C2)C3)cc1		inconclusive: 0.891 µM [activator, full curve, poor fit]
Cc1oc(-c2cccc3ccccc23)nc1CN1CCN(c2ncnc3ccccc23)CC1		inconclusive: 8.91 µM [inhibitor, partial curve, poor fit]
CCCCn1c(NC(=S)Nc2ccccc2)nc2ccccc21		inconclusive: 28.2 µM [inhibitor, single point]
CCc1ccc(-c2cc(C(=O)Nc3c(C)n(C)n(-c4ccccc4)c3=O)c3ccccc3n2)s1		inconclusive: 23.1 µM [inhibitor, single point]
CC(C)NCCCOc1ccc(C(C)(C)c2ccccc2)cc1		inconclusive: 25.1 µM [inhibitor, single point]
COc1cc(OC)cc(C(=O)NCC2CCCN(C(=O)c3csc(C(C)C)n3)C2)c1 (centres undefined)	inactive: 7.16%	
N#Cc1c(-c2ccco2)ccn(Cc2cccc(F)c2)c1=O	inactive: 7.08%	
CCN(CC)C(=O)c1sc(NC(=O)C(C)Sc2nc(-c3ccccc3)cc(C(F)(F)F)n2)c(C(=O)OC)c1C (centres undefined)		inconclusive: 35.5 µM [inhibitor, single point]
COC(=O)c1ccc(/C=C2\N=C(SC)SC2=O)cc1	inactive: 1.94%	
CC1(C)CC(=O)C(C(c2ccc(F)cc2)C2C(=O)CC(C)(C)CC2=O)C(=O)C1	inactive: 1.14%	
N#Cc1ccccc1S(=O)(=O)N1CCN(C(=O)Cc2coc3cc(O)ccc23)CC1	inactive: -1.63%	
Cc1ccc(CSc2nnnn2C)cc1	inactive: 0.789%	
COc1ccc(N(Cc2cccs2)C(=O)Nc2ccccc2)cc1		inconclusive: 35.5 µM [inhibitor, single point]
COc1ccc(C(=O)c2sc(Nc3cccc(OC)c3)c(C(=O)Nc3cccc(C)c3C)c2N)cc1		active: 20.6 µM
COc1ccc(C(=O)/C=C/c2ccc(OC)c(COc3ccccc3F)c2)cc1		inconclusive: 35.5 µM [inhibitor, single point]
O=C(NCc1ccco1)c1cc(C(=O)C2CCCCC2)c[nH]1	inactive: -5.06%	
COC(=O)NNC(=O)c1ccc(Cl)cc1Cl		inconclusive: 0.631 µM [activator, single point]
Cc1oc(-c2ccccc2)nc1Cn1cccc1C1=NC(c2ccccc2)CO1 (centres undefined)		active: 20 µM
Cc1c(-c2ccccc2)nc(-c2ccccc2)[nH]c1=O		inconclusive: 0.708 µM [inhibitor, partial curve, poor fit]
COc1cccc(CNCC(O)(c2ccc(Cl)cc2)c2ccc(Cl)cc2)c1		active: 18.3 µM
CCOC(=O)c1c(Oc2ccc(OC)cc2)nnc(-c2ccccc2)c1-c1ccccc1	inactive: -17.5% [at 46.1 µM]	
COC(=O)c1ccc(NCC(=O)c2ccccc2)cc1		inconclusive: 8.91 µM [inhibitor, single point]
Cc1ccc(S(=O)(=O)N2CCOCC2)cc1NC(=O)CN1CCN(c2ccc(O)cc2)CC1	inactive: -24.4%	

Structure (SMILES)	activity change, negative = inhibition	Potency
c1ccc(-c2csc(Nc3ccccn3)n2)cc1		inconclusive: 14.1 µM [inhibitor, partial curve, poor fit]
COc1ccc(Cn2c(-c3ccc(C)cc3)nc3c(c(=O)c4ccccc4n3C)c2=O)cc1		inconclusive: 5.62 µM [inhibitor, partial curve, poor fit]
CN1CCc2ccccc2C1C1CCNCC1 (centres undefined)		inconclusive: 29.1 µM [inhibitor, single point]
CCC(C)c1ccc2oc(-c3ccc(NC(=O)c4ncn[nH]4)cc3)nc2c1 (centres undefined)		inconclusive: 4.61 µM [inhibitor, single point]
N#CCC(=O)N/N=C/c1c(-c2ccccc2)n(-c2ccccc2)c2ccccc12		inconclusive: 14.1 µM [inhibitor, single point]
COCCNC(=O)[C@@H]1CCCN1C(=O)C1CCN(S(=O)(=O)c2ccc(C)cc2)CC1		inconclusive: 35.5 µM [activator, partial curve, poor fit]
Cc1cc(C)c(C)c(S(=O)(=O)Nc2cccc(-n3cnnn3)c2)c1C		inconclusive: 10 µM [inhibitor, partial curve]
CCN(c1ccccc1)S(=O)(=O)c1ccc2c(c1)CC(C)N2C(=O)C1CC1 (centres undefined)	inactive: -25% [at 46.1 µM]	
COC(=O)c1cc2n(n1)CCN(Cc1cccc(OC)c1)C2=O		inconclusive: 7.08 µM [activator, partial curve, poor fit]
CCOC(=O)c1ccc(N2C(=O)c3n[nH]c(-c4cccs4)c3C2c2ccc(C(C)C)cc2)cc1 (centres undefined)		inconclusive: 5.62 µM [inhibitor, single point]
O=C(N/N=C/c1cccnc1)c1cc(-c2ccccc2OCc2ccccc2)n[nH]1		inconclusive: 0.316 µM [inhibitor, full curve, poor fit]
COc1cc(SC)ccc1C(=O)Nc1ccc(C)cc1	inactive: -11.6% [at 46.1 µM]	
Cc1cc(C)nc(N/N=C/c2cccc(Cl)c2)n1		inconclusive: 20.6 µM [activator, partial curve, poor fit]
COc1ccccc1-c1cc(C(F)(F)F)nc(S(=O)(=O)CCCC(=O)Nc2cc(OC)c(OC)c(OC)c2)n1		inconclusive: 11.2 µM [inhibitor, partial curve, poor fit]
C1CCCN(c2nc3nonc3nc2N2CCCCCC2)CC1	inactive: 1.15% [at 46.1 µM]	
CCOCCCn1c(SCC(=O)Nc2cc(C(C)(C)C)nn2-c2ccccc2)nc2ccccc2c1=O		inconclusive: 0.112 µM [activator, full curve, poor fit]
CCCN(CCC)CCNC(=O)c1cn(C)c(=O)c2c1c1ccccc1n2C		inconclusive: 5.01 µM [inhibitor, single point]
COC(=O)C1=C(C(=O)OC)[C@@H]2N(C)c3ccccc3[C@@]23C[C@@H](C(=O)OC)N(C(=O)c2ccco2)C3=N1		inconclusive: 5.96 µM [activator, single point]
CCCCOc1ccc(Nc2cc(Cl)ccc2C(=O)O)cn1	inactive: 6.03% [at 46.1 µM]	
COc1ccc(CNCCC(c2ccccc2)c2ccc(OC(C)C)cc2)cc1OC (centres undefined)		inconclusive: 35.5 µM [inhibitor, single point]
Cc1ccc2cc(C)c(N3CCC(C)CC3)nc2c1		inconclusive: 0.562 µM [activator, full curve, poor fit]
NC(=N\N=Cc1ccccc1)/C(N)=N/N=Cc1ccccc1	inactive: -12.9%	
C/C(N)=C(/C#N)C(=O)CSc1nnnn1-c1ccc(C)cc1		inconclusive: 0.013 µM [activator, full curve, poor fit]
